The text below walks through data of doi:10.1101/2020.08.21.261982.

By UniProt entry, the sequences of proteins in these tests, tags left out.
UniProt P17742: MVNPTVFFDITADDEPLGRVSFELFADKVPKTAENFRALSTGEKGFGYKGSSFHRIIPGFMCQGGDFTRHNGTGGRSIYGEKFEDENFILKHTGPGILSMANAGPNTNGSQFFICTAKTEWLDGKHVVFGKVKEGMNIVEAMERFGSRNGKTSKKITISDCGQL

The target in assay [1] is T1, small acidic Hsp90-binding co-chaperone p23 (endogenous, N2a cells) (mouse (endogenous in N2a)) (UniProt Q9R0Q7).
T1 sequence: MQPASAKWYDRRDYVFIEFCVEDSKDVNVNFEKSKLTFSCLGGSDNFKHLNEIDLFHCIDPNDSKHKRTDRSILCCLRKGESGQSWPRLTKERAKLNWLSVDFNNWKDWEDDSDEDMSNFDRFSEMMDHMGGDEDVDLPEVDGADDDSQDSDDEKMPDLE
Put plainly: co-IP.

For assay [2], the target named is Cyclophilin A (endogenous, N2a cells) (mouse (endogenous in N2a)) (UniProt P17742). Nature of the assay: co-IP.

These are yes or no findings as the source states them, for the method shown. Binding seen in cells or lysates may run through a third protein. Some entries that bind do so weakly or less than the wild type.

As for “Cyclophilin A (endogenous, N2a cells) (from UniProt P17742 1-164)”, in assay [1], the binding entry is recorded as “binds”.

B1: human p23 (pRK5MCS-hp23), overexpressed in N2a cells (protein, UniProt Q15185 1-160)
chain: MQPASAKWYDRRDYVFIEFCVEDSKDVNVNFEKSKLTFSCLGGSDNFKHLNEIDLFHCIDPNDSKHKRTDRSILCCLRKGESGQSWPRLTKERAKLNWLSVDFNNWKDWEDDSDEDMSNFDRFSEMMNNMGGDEDVDLPEVDGADDDSQDSDDEKMPDLE
For B1, the binding result in assay [2] was “binds”.
